Data: PubChem BioAssay AID1671190 (National Center for Advancing Translational Sciences (NCATS), 2021)
In all, about 580,000 compounds went through this assay and about 6,100 (1.1%) were called active. The shares of active, inactive and inconclusive entries below differ from those in the screen. Calls come from the whole dose curve; as a rule, active = well fitted inhibition curve with a large enough effect; inconclusive = small, poorly fitted or top-dose-only effect, or another doubt; inactive = no such curve, though single readings can be large or run the other way. Potencies beside an inconclusive call are fits to weak or partial responses and may not hold up. Square brackets hold non-standard residues; d marks the D form. Peptide text beside a SMILES is read from it. * marks the point of attachment. ξ: configuration not given here. ξArg(NO2) = N=C(NCCCC(N)C(=O)O)N[N+](=O)[O-]; Bz = O=C(c1ccccc1)*

By UniProt entry, the sequences of proteins in these tests, tags left out.
UniProt P18054, whole entry, looked up: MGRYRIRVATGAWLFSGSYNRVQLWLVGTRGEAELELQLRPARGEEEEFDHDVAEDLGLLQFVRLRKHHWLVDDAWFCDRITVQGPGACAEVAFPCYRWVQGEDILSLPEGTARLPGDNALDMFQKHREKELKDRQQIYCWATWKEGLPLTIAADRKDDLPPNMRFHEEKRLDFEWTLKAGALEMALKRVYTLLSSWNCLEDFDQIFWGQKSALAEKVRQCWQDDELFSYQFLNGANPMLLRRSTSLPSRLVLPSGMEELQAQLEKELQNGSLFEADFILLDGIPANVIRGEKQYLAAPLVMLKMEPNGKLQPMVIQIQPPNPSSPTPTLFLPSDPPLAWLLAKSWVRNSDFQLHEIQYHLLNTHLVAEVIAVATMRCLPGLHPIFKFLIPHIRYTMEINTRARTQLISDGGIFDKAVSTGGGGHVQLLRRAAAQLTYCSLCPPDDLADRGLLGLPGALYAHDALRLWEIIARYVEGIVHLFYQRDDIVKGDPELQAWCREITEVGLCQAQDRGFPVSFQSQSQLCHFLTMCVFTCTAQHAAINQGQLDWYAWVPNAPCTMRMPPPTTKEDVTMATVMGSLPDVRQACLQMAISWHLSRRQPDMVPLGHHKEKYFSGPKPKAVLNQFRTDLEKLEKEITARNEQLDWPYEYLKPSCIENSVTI

Molecular target: Polyunsaturated fatty acid lipoxygenase ALOX12 (Homo sapiens) (UniProt P18054)
Assay: Primary qHTS assay for inhibitors of human arachidonate 12S-lipoxygenase (ALOX12): Round 2
Conditions: purified 12hLO, xylenol orange hydroperoxide absorbance; series mostly up to 108 µM
In short: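 Purified human 12hLO (150 nM final) in 25 mM Hepes, 0.01% Triton X-100, pH 7.0 was preincubated 15 min at room temperature with compound. Then 40 uM arachidonic acid was added, 30 min. Hydroperoxide was read by Fe-XO absorbance ratio 573/405 nm.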
Potency is the fitted concentration of half-maximal effect.

Question: Which Potency does the source give for Cc1cc(C)cc(NC(=S)NC2CC3CCCC(C2)N3Cc2cccs2)c1 (stereo not drawn) here?
Answer: Its Potency is inconclusive: 44.7 µM [inhibitor, partial curve, poor fit].

Question: For CCCNC(=O)N1[C@H]2CC[C@@H]1C(C(=O)OC)=C(c1ccc(OC)c(OC)c1)C2, which Potency is on record?
Answer: The Potency was “inactive”.

Question: How did the Potency turn out when CCOc1ccc2nc(NC(=O)c3cccn(Cc4ccc(C)cc4)c3=O)sc2c1 was run?
Answer: Its Potency is inconclusive: 56.2 µM [inhibitor, partial curve, poor fit].

Question: With O=C(Cc1c[nH]c2ccccc12)N1CCN(Cc2ccccc2)CC1 as the molecule, how does the Potency read?
Answer: Its Potency is inconclusive: 79.4 µM [inhibitor, single point].

Question: CC(C)Cn1cc(C(=O)NCC2CCCN2C)c2ccccc21 (stereo not drawn) was tested. Which Potency did it give?
Answer: Its Potency is “inactive”.

Question: For N/C(=N\[N+](=O)[O-])NCCCC(NC(=O)CNC(=O)c1ccccc1)C(=O)O (stereo not drawn) (Bz-Gly-[ξArg(NO2)]-OH), which Potency is on record?
Answer: Its Potency is inconclusive: 5.62 µM [inhibitor, full curve, poor fit].

Question: Which Potency does the source give for O=S(=O)(Cc1ccc(F)cc1)C(c1ccc(F)cc1)c1ccc(F)cc1 here?
Answer: Its Potency is “inactive”.

Question: Which Potency does the source give for CC(=O)N(C1CC1)C1CCOC2(CCNCC2)C1 (stereo not drawn) here?
Answer: Its Potency is inconclusive: 25.1 µM [inhibitor, full curve, poor fit].

Question: With COC(=O)C1=C(c2cccc(OC)c2OC)C[C@@H]2CC[C@H]1N2C(=O)N1CCCC1 as the molecule, how does the Potency read?
Answer: Its Potency is “inactive”.

Question: For O=C(Nc1ccccc1)N(Cc1ccc2c(c1)OCO2)C1CCN(Cc2ccccc2)CC1, which Potency is on record?
Answer: The Potency was inconclusive: 44.7 µM [inhibitor, partial curve, poor fit].

Question: With C#CCOc1ccc(CCN)cc1 as the molecule, how does the Potency read?
Answer: Its Potency is “inactive”.

Question: How did the Potency turn out when O=P(Nc1ccccc1)(Oc1ccccc1)Oc1ccccc1 was run?
Answer: The Potency was “inactive”.

Question: How did the Potency turn out when COc1cc(/C=C2/C(=O)NC(=O)N(c3ccc(C)cc3)C2=O)cc(OC)c1OC was run?
Answer: Its Potency is inconclusive: 35.5 µM [inhibitor, partial curve, poor fit].

Question: With CC[C@H]1CN2CC[C@H]1C[C@@H]2CNS(=O)(=O)c1cccs1 as the molecule, how does the Potency read?
Answer: Its Potency is “inactive”.

Question: Which Potency does the source give for CN1CC2(C1)C(=O)N(C)C(=O)[C@@H]1C[C@@H](O)CN12 here?
Answer: Its Potency is “inactive”.

Question: How did the Potency turn out when C[C@]12CC[C@H](N)CC1=CCC1C2CC[C@@]2(C)C1CC[C@@H]2O (stereo partly drawn) was run?
Answer: The Potency was inconclusive: 126 µM [inhibitor, single point].

Question: With COCCCNC(=O)c1c(N)n(Cc2ccco2)c2nc3ccccc3nc12 as the molecule, how does the Potency read?
Answer: Its Potency is inconclusive: 35.5 µM [inhibitor, partial curve, poor fit].

Question: O=C1NC(=O)C(Sc2ccccc2[N+](=O)[O-])C(=O)N1 was tested. Which Potency did it give?
Answer: The Potency was active: 10 µM.

Question: For O=c1[nH]c2ccccc2n1C1CCN(C(c2nnnn2-c2ccc3c(c2)OCCO3)C2CC2)CC1 (stereo not drawn), which Potency is on record?
Answer: The Potency was inconclusive: 89.1 µM [inhibitor, single point].

Question: How did the Potency turn out when CCOC(=O)[C@]12Cc3cc(C)ccc3[C@H]1N(CCC(=O)OC)C(=O)c1ccccc12 was run?
Answer: Its Potency is inconclusive: 70.8 µM [inhibitor, single point].

Question: How did the Potency turn out when COC(=O)C1=C(N)Oc2c(c(=O)oc3ccccc23)C1c1cccnc1 (stereo not drawn) was run?
Answer: Its Potency is inconclusive: 56.2 µM [inhibitor, single point].

Question: CCC1(CCC(C)C)C(=O)NC(=S)NC1=O was tested. Which Potency did it give?
Answer: Its Potency is inconclusive: 70.8 µM [inhibitor, single point].

Question: Which Potency does the source give for COc1ccc(N2C(=O)NC(=O)/C(=C/c3cccc(OC(=O)c4cccs4)c3)C2=O)cc1Cl here?
Answer: The Potency was active: 35.5 µM.

Question: C=C[C@H]1CN2CC[C@H]1C[C@@H]2CNC(=O)Nc1cccc(C(F)(F)F)c1 was tested. Which Potency did it give?
Answer: Its Potency is inconclusive: 31.6 µM [inhibitor, partial curve, poor fit].

Question: How did the Potency turn out when CC(C)CCn1c(=O)c(C(=O)NCc2ccco2)c(O)c2ccccc21 was run?
Answer: Its Potency is “inactive”.

Question: How did the Potency turn out when COc1ccccc1OCC#CCN1CCCC(C)C1 (stereo not drawn) was run?
Answer: The Potency was inconclusive: 0.562 µM [inhibitor, full curve, poor fit].

Question: With Cc1ccc(C(=O)C2CN(C)CC2C(=O)c2ccc(C)cc2)cc1 (stereo not drawn) as the molecule, how does the Potency read?
Answer: Its Potency is inconclusive: 89.1 µM [inhibitor, single point].

Question: With CC(N=Cc1c(O)[nH]c(=O)[nH]c1=O)c1ccccc1 (stereo not drawn) as the molecule, how does the Potency read?
Answer: Its Potency is “inactive”.

Question: With COC(=O)[C@@H]1N=C(c2ccc(OC)cc2)O[C@]12C(=O)N(Cc1ccc(OC)cc1)c1ccccc12 as the molecule, how does the Potency read?
Answer: Its Potency is inconclusive: 39.8 µM [inhibitor, partial curve].

Question: How did the Potency turn out when O=C1NC(=S)N(c2ccccc2)C(=O)C1C(c1ccncc1)C1C(=O)NC(=S)N(c2ccccc2)C1=O (stereo not drawn) was run?
Answer: Its Potency is “inactive”.

Question: Which Potency does the source give for O=C(Cc1c[nH]c2ccccc12)N1CCN(C(c2ccccc2)c2ccccc2)CC1 here?
Answer: The Potency was inconclusive: 89.1 µM [inhibitor, partial curve, poor fit].

Question: Cc1ccc(-c2cc(-c3ccc(C)cc3)[n+](-c3ccc(C(=O)[O-])cc3)c(-c3ccc(C)cc3)c2)cc1 was tested. Which Potency did it give?
Answer: The Potency was inconclusive: 39.8 µM [inhibitor, partial curve, poor fit].

Question: With Cc1ccccc1CS(=O)(=O)Cc1ccc(C(=O)N2CCC3(CC2)OCCO3)o1 as the molecule, how does the Potency read?
Answer: The Potency was “inactive”.

Question: For Cc1ccc(N2C(=O)NC(=O)/C(=C/c3ccoc3)C2=O)cc1, which Potency is on record?
Answer: Its Potency is inconclusive: 25.1 µM [inhibitor, partial curve, poor fit].

Question: Which Potency does the source give for CN(C)c1ccc(/C=C/C=C/c2sc3ccccc3[n+]2C)cc1 here?
Answer: Its Potency is inconclusive: 89.1 µM [inhibitor, single point].

Question: With CCCCC/C=C\C/C=C\C/C=C\C/C=C\CCCC(=O)Nc1ccc(O)cc1 as the molecule, how does the Potency read?
Answer: The Potency was “inactive”.

Question: For COc1cccc(NP(=O)(Oc2ccc(Cl)cc2)Oc2ccc(Cl)cc2)c1, which Potency is on record?
Answer: Its Potency is inconclusive: 35.5 µM [inhibitor, partial curve, poor fit].

Question: Which Potency does the source give for COc1ccc(/C=C2\C(=O)NC(=S)N(C)C2=O)cc1C here?
Answer: The Potency was inconclusive: 35.5 µM [inhibitor, partial curve, poor fit].

Question: COc1ccc(CNC(=O)CCC(=O)N2C[C@H]3C[C@H](C2)c2cccc(=O)n2C3)cc1 was tested. Which Potency did it give?
Answer: Its Potency is “inactive”.

Question: With COc1cc(OC)c(OC)cc1CNCCc1ccc2c(c1)OCO2 as the molecule, how does the Potency read?
Answer: The Potency was inconclusive: 112 µM [inhibitor, single point].

Question: With O=[N+]([O-])c1ccc(N2CCCC2)c2ncccc12 as the molecule, how does the Potency read?
Answer: Its Potency is “inactive”.

Question: How did the Potency turn out when O=C(O)c1cccc2c1NC(C(=O)O)C1CC(Sc3ccccc3[N+](=O)[O-])C(Cl)C21 (stereo not drawn) was run?
Answer: The Potency was active: 3.16 µM.

Question: O=c1c2ccccc2nc(CN2CCCCCC2)n1-c1ccc(F)cc1 was tested. Which Potency did it give?
Answer: Its Potency is “inactive”.
